{
  "sequences": {"note": "Protein sequences, listed by entry. Tags and fused reporters are not part of them. Lines headed by an entry give the natural chain unless they say otherwise; changes in a name come on top.", "UniProt P09429": "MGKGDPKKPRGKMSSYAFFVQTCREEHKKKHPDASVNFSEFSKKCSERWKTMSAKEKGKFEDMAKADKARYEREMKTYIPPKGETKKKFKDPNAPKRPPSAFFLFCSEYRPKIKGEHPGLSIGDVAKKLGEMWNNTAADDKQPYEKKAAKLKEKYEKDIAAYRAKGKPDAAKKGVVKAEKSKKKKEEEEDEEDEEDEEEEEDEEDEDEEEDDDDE"},
  "source": "patent US20220153792A1",
  "about": "(INSTITUTE FOR RESEARCH IN BIOMEDICINE, published 2022)",
  "target": "histidine tagged HMGB1 (High-Mobility-Group-Protein 1) (Homo sapiens (Human)) (UniProt P09429)",
  "experiment": "MST",
  "note": "No constants are given. Whether binding was seen depends on the method and setting. Some results given as binding are weak or reduced against the parent protein; the word gives no strength.",
  "data": [
    {"binder": "ERWIH (Last five residues of HBP08 (ERWIH))", "note": "[Pentapept-2]", "values": [
      {"measurement": "binding", "result": "binds"}
    ]}
  ]
}
